Laboratory results taken from paper PMC12380211.
No constants are given. Whether binding was seen depends on the method and setting. Binding seen in cells or lysates may run through a third protein. Some entries that bind do so weakly or less than the wild type.

Protein sequences, listed by entry. Tags and fused reporters are not part of them. Residues count along the entry.
UniProt P13473, residues 29-410: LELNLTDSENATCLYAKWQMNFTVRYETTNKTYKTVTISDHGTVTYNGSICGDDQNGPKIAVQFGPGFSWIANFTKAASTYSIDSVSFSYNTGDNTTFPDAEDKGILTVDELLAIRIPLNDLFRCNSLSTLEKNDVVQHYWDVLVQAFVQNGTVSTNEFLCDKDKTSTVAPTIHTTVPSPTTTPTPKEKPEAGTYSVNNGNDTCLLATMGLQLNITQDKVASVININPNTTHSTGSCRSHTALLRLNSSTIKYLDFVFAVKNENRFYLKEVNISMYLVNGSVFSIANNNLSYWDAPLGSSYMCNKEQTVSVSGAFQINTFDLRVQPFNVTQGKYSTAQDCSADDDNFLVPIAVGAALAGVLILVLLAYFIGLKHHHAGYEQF

Molecular target: lysosome-associated membrane protein type 2A (LAMP2A) (human (endogenous in HaCaT)) (UniProt P13473)
Assay: co-IP; HaCaT cell lysate (IP Cell Lysis Solution), cells with or without AR7 (20.0 uM); primary antibody on protein G agarose overnight at 4 C (anti-LAMP2A is the antibody listed for CO-IP), five washes, Western blot; rabbit IgG as negative control

B1: toll-like receptor 7 (TLR7) (receptor, UniProt Q9NYK1 27-1049)
chain: ARWFPKTLPCDVTLDVPKNHVIVDCTDKHLTEIPGGIPTNTTNLTLTINHIPDISPASFHRLDHLVEIDFRCNCVPIPLGSKNNMCIKRLQIKPRSFSGLTYLKSLYLDGNQLLEIPQGLPPSLQLLSLEANNIFSIRKENLTELANIEILYLGQNCYYRNPCYVSYSIEKDAFLNLTKLKVLSLKDNNVTAVPTVLPSTLTELYLYNNMIAKIQEDDFNNLNQLQILDLSGNCPRCYNAPFPCAPCKNNSPLQIPVNAFDALTELKVLRLHSNSLQHVPPRWFKNINKLQELDLSQNFLAKEIGDAKFLHFLPSLIQLDLSFNFELQVYRASMNLSQAFSSLKSLKILRIRGYVFKELKSFNLSPLHNLQNLEVLDLGTNFIKIANLSMFKQFKRLKVIDLSVNKISPSGDSSEVGFCSNARTSVESYEPQVLEQLHYFRYDKYARSCRFKNKEASFMSVNESCYKYGQTLDLSKNSIFFVKSSDFQHLSFLKCLNLSGNLISQTLNGSEFQPLAELRYLDFSNNRLDLLHSTAFEELHKLEVLDISSNSHYFQSEGITHMLNFTKNLKVLQKLMMNDNDISSSTSRTMESESLRTLEFRGNHLDVLWREGDNRYLQLFKNLLKLEELDISKNSLSFLPSGVFDGMPPNLKNLSLAKNGLKSFSWKKLQCLKNLETLDLSHNQLTTVPERLSNCSRSLKNLILKNNQIRSLTKYFLQDAFQLRYLDLSSNKIQMIQKTSFPENVLNNLKMLLLHHNRFLCTCDAVWFVWWVNHTEVTIPYLATDVTCVGPGAHKGQSVISLDLYTCELDLTNLILFSLSISVSLFLMVMMTASHLYFWDVWYIYHFCKAKIKGYQRLISPDCCYDAFIVYDTKDPAVTEWVLAELVAKLEDPREKHFNLCLEERDWLPGQPVLENLSQSIQLSKKTVFVMTDKYAKTENFKIAFYLSHQRLMDEKVDVIILIFLEKPFQKSKFLQLRKRLCGSSVLEWPTNPQAHPYFWQCLKNALATDNHVAYSQVFKETV
- binding: binds
